According to article PMC4028107, “Adenosine deaminase activity modulation by some street drug: molecular docking simulation and experimental investigation” (DARU Journal of Pharmaceutical Sciences, 2014):

Target: T1, adenosine deaminase (Bos taurus, UniProt P56658)
T1 construct: Adenosine deaminase (EC 3.5.4.4) extracted from bovine spleen; purchased sigma; host or cells: bovine spleen (tissue extract)
T1 sequence (P56658 1-363): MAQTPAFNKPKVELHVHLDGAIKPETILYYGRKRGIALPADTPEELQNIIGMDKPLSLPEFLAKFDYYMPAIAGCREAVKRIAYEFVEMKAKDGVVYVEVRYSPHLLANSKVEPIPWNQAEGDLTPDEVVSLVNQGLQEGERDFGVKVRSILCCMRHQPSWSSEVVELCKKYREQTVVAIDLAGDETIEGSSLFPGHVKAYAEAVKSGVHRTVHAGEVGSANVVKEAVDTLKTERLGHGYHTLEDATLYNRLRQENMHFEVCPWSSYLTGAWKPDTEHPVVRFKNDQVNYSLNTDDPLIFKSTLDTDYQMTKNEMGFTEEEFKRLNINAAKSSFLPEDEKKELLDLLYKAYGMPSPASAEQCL
Experiment: Fluorescence spectroscopy of ADA (Trp emission)
Format: binding, bovine
Settings: excitation 290 nm, emission 300-400 nm, pH 7.4, enzyme 6 μM, compounds 1.7 to 73.4 μM
Description: Fluorescence spectroscopy was performed on a Hitachi fluorescence spectrophotometer model MPF-4 with 1 cm path length fluorescence cuvette and final volume of 400 μL. The excitation wavelength was adjusted in 290 nm, and the emission was scanned every 1 nm in the range of 300 to 400 nm. The final concentration of enzyme was 6 μM and different concentrations of tested compounds were changed from 1.7 to 73.4 μM.

Question: With `CN1CC[C@]23c4c5ccc(O)c4O[C@H]2[C@@H](O)C=C[C@H]3[C@H]1C5` [Morphine] as the compound, how does the “change in fluorescence spectra of ADA” value read?
Answer: The value was “do not show noticeable change and shift”.
